Several values for one entry are separate records, joined by “and”; a condition that tells them apart may be missing. Identical values can stand only once. The campaign covered roughly 580,000 compounds. About 6,100 (1.1%) were called active. The shares of active, inactive and inconclusive entries below differ from those in the screen. Calls come from the whole dose curve; as a rule, active = well fitted inhibition curve with a large enough effect; inconclusive = small, poorly fitted or top-dose-only effect, or another doubt; inactive = no such curve, though single readings can be large or run the other way. Potencies beside an inconclusive call are fits to weak or partial responses and may not hold up. Peptide text beside a SMILES is read from it.
Biological target: Polyunsaturated fatty acid lipoxygenase ALOX12 (Homo sapiens) (UniProt P18054)
Experiment: Primary qHTS assay for inhibitors of human arachidonate 12S-lipoxygenase (ALOX12): Round 2
Conditions: purified 12hLO, xylenol orange hydroperoxide absorbance; activity change, negative = inhibition: at 108 µM (top of the series) unless noted
How it was run: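 Purified human 12hLO (150 nM final) in 25 mM Hepes, 0.01% Triton X-100, pH 7.0 was preincubated 15 min at room temperature with compound. Then 40 uM arachidonic acid was added, 30 min. Hydroperoxide was read by Fe-XO absorbance ratio 573/405 nm.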
% is set by controls: 0 for no effect and ±100 for the full control effect; potency is the fitted concentration of half-maximal effect.

Sequences of proteins named here, by UniProt entry; tags and fusion partners are left off. A change or cut given only in a name is not applied to a line headed by its entry.
UniProt P18054: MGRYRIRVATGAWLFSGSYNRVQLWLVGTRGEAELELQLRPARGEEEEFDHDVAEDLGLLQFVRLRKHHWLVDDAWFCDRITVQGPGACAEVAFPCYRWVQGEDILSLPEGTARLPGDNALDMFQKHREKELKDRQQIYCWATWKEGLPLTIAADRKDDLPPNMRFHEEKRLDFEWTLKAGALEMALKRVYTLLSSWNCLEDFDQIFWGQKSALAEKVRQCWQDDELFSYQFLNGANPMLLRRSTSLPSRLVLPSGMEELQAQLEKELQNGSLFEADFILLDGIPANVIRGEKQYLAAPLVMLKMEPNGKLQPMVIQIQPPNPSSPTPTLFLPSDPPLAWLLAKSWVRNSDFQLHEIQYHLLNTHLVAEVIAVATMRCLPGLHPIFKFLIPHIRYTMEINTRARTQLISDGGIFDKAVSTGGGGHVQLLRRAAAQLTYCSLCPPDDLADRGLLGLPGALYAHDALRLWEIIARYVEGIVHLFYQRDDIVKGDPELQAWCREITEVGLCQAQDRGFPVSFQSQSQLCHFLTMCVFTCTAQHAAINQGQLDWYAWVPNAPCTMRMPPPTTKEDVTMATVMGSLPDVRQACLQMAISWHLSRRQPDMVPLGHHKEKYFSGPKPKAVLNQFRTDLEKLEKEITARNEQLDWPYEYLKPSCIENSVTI

Row | Compound | Potency | activity change, negative = inhibition
1 | COc1ccccc1N1CCN(CCN2C(=O)C3CCCCN3C2=O)CC1 (stereo not drawn) | active: 12.6 µM | 
2 | Cc1cc(C)c2c(=O)cc(C(=O)Nc3ccc(S(=O)(=O)Nc4onc(C)c4C)cc3)oc2c1 | inconclusive: 112 µM [inhibitor, partial curve, poor fit] | 
3 | O=C(C1=C(O)C(=O)N(Cc2ccco2)C1c1cccs1)c1cccs1 (stereo not drawn) | inconclusive: 50.1 µM [inhibitor, partial curve, poor fit] | 
4 | O=C(NCc1c(Cl)cccc1Cl)c1ccc2nnsc2c1 | inconclusive: 158 µM [inhibitor, single point] | 
5 | O=C(O)CCSc1ccc(Cl)cc1 | inconclusive: 100 µM [inhibitor, partial curve, poor fit] | 
6 | CCOc1ccc(-n2cc(-c3ccccc3)c3c(NCC4CCCO4)ncnc32)cc1 (stereo not drawn) |  | inactive: 10.4%
7 | COc1cc(O)oc1C=Nc1ccc(C(=O)O)cc1 |  | inactive: -19.5%
8 | Cc1cccc(C)c1NC(=O)C(C)NCc1cccs1 (stereo not drawn) | inconclusive: 0.501 µM [inhibitor, full curve, poor fit] | 
9 | O=C(Cc1ccc(S(=O)(=O)N2CCOCC2)s1)Nc1cc(C(F)(F)F)cc(C(F)(F)F)c1 | inconclusive: 79.4 µM [inhibitor, single point] | 
10 | COC(=O)[C@H](Cc1ccccc1)NC(=O)[C@@H](N)CC(=O)O (H-Asp-Phe-OMe) | inconclusive: 28.2 µM [inhibitor, partial curve, poor fit] | 
11 | COc1cc(OC)c(/C=N/n2c(C3CCCCC3)n[nH]c2=S)c(OC)c1 | inconclusive: 79.4 µM [inhibitor, partial curve, poor fit] | 
12 | CC(C)(C)c1nc(C(C)(C)NC(=O)C2Cc3ccccc3O2)no1 (stereo not drawn) | inconclusive: 35.5 µM [inhibitor, partial curve, poor fit] | 
13 | Cc1nc(/C=[N+](\[O-])C(C)(C)/C=N/O)n(O)c1C | inconclusive: 6.31 µM [inhibitor, partial curve, poor fit] and inconclusive: 7.08 µM [inhibitor, partial curve, poor fit] | 
14 | N#Cc1nc(-c2ccc(S(=O)(=O)N3CCCC3)cc2)oc1N1CCN(c2cccc(Cl)c2)CC1 |  | inactive: -12.8%
15 | Cc1ccc(S(=O)(=O)N2CCCC(C(=O)N3CCN(C)CC3)C2)cc1 (stereo not drawn) | inconclusive: 3.98 µM [inhibitor, partial curve, poor fit] | 
16 | COc1ccc(/C=C/C(=O)c2ccc(O)c(CCCl)c2)cc1C | active: 31.6 µM | 
17 | CCc1nnc(NC(=O)CCC(=O)N2CCN(Cc3ccc(C)cc3C)CC2)s1 |  | inactive: -1.98%
18 | O=P(O)(COc1ccccc1)COc1ccccc1 | inconclusive: 6.31 µM [inhibitor, full curve] | 
19 | COCCn1ncc(N2CCCC(CC(=O)NCc3ccc(Cl)cc3)C2)cc1=O (stereo not drawn) |  | inactive: -11.5%
20 | CCCC(C)c1nnc(NC(=O)CN2C(=O)c3ccccc3C2=O)s1 (stereo not drawn) | inconclusive: 70.8 µM [inhibitor, partial curve, poor fit] | 
21 | Cc1cc(C)nc(NNS(=O)(=O)c2c(F)cc(F)cc2Br)n1 | inconclusive: 56.2 µM [inhibitor, partial curve, poor fit] | 
22 | O=C(COC(=O)c1cc(=O)[nH]c2ccccc12)Nc1ccc(F)cc1 | inconclusive: 3.16 µM [inhibitor, full curve, poor fit] | 

Row | Compound | Potency | activity change, negative = inhibition
23 | CC(C)CC1NC(=O)c2ccc(Cl)cc2-n2c1nc1ccc(F)cc1c2=O (stereo not drawn) | inconclusive: 39.8 µM [inhibitor, partial curve, poor fit] | 
24 | CC1(C)SC2C(NC(=O)COc3ccccc3)C(=O)N2C1C(=O)O (stereo not drawn) | inconclusive: 2 µM [inhibitor, full curve, poor fit] | 
25 | O=C(/C=C/c1ccc(-c2ccc(Cl)cc2Cl)o1)c1ccccc1 | active: 1.58 µM | 
26 | Cc1c(OCc2nn[nH]n2)ccc2c3c(c(=O)oc12)CCC(C)C3 (stereo not drawn) | inconclusive: 89.1 µM [inhibitor, single point] | 
27 | NS(=O)(=O)c1ccc(CNC(=O)c2ccc(Cl)c(S(=O)(=O)NCc3ccccc3)c2)cc1 |  | inactive: -4.88%
28 | CC(CCc1ccc(O)cc1)N(C)CCc1ccccc1 (stereo not drawn) | inconclusive: 0.794 µM [inhibitor, full curve, poor fit] | 
29 | Cc1[nH]c2ccccc2c1C(=O)CN1CCCCC1CCO (stereo not drawn) |  | inactive: -7.62%
30 | CCc1nnsc1C(=O)N(C)Cc1ccccc1Cl |  | inactive: -20.3%
31 | C/C(=N\Nc1cccc2cccnc12)c1ccc(C)cc1 | inconclusive: 44.7 µM [inhibitor, partial curve, poor fit] | 
32 | CCOC(=O)c1cccc(NC(=O)CSc2nc3cc4ccccc4cc3[nH]2)c1 |  | inactive: -13.1%
33 | COCCN1CCN(Cc2cn(C)nc2-c2cccc(Cl)c2)CC1 |  | inactive: 3.33%
34 | Cc1cccc(C)c1NC(=O)C(c1ccccc1)N1CCN(c2ccc(C(F)(F)F)cn2)CC1 (stereo not drawn) |  | inactive: -3.55%
35 | COc1ccc(C(=O)CC(=O)C(=O)Nc2c(C)cccc2C)cc1 | inconclusive: 2 µM [inhibitor, partial curve, poor fit] | 
36 | CCCC(CCC)=NNC(=S)NC1CCCCC1 | inconclusive: 44.7 µM [inhibitor, partial curve, poor fit] | 
37 | COc1ccc(CNC(=O)C(C)Sc2nc3cc(Cl)ccc3n2C)cc1 (stereo not drawn) | inconclusive: 89.1 µM [inhibitor, partial curve, poor fit] | 
38 | Nc1nc(=S)c2ncn(C3CCCC3)c2[nH]1 | inconclusive: 100 µM [inhibitor, partial curve, poor fit] | 
39 | COc1ccc2nc3n(c2c1)[C@@H](CNCc1ccc(C(=O)O)cc1)COC3 | inconclusive: 28.2 µM [inhibitor, full curve, poor fit] | 
40 | COC(=O)c1cc(COC(=O)c2cccnc2SC)oc1C | active: 39.8 µM | 
41 | CCCCC(=O)OCC(=O)N1N=C(c2c[nH]c3ccccc23)C(O)C1c1ccc(OC)cc1 (stereo not drawn) | inconclusive: 50.1 µM [inhibitor, partial curve, poor fit] | 
42 | COc1cccc(S(=O)(=O)N2CCCCC2c2nc(-c3cnccn3)n[nH]2)c1 (stereo not drawn) |  | inactive: 16.4%
43 | COc1cc(C2CC(=O)Nc3n[nH]c(Nc4ccccc4)c32)cc(OC)c1O (stereo not drawn) |  | inactive: 1.48%
